No constants are given. Whether binding was seen depends on the method and setting. Binding seen in cells or lysates may run through a third protein. Here binding means that the protein was enriched with, or labelled near, the bait; the list need not be complete.
Target: T1, Fibroblast growth factor 13 (FGF13), endogenous in mouse primary neurons (mouse (endogenous in primary neurons)) (UniProt P70377)
T1 sequence: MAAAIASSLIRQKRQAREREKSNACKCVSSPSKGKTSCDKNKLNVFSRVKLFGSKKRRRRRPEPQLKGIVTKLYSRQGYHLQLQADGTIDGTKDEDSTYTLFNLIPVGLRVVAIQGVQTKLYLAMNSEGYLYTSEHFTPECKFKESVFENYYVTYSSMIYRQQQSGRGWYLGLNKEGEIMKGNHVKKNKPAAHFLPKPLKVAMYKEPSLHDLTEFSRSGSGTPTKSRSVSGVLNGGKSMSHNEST
Experiment: affinity purification with mass spectrometry; anti-FGF13 immunoprecipitate from control and MPP+-treated primary neurons; label-free mass spectrometry (Q Exactive), searched against UniProtKB

B1: MTCH2, endogenous in mouse primary neurons (protein, UniProt Q791V5 1-303)
chain: MADAASQVLLGSGLTILSQPLMYVKVLIQVGYEPLPPTIGRNIFGRQVCQLPGLFCYAQHIASIDGRRGLFTGLTPRLCSGVLGTVVHGKVLQYYQESEKPEELGSVTVQKEYSSSFDRVIKETTREMIARSAATLITHPFHVITLRSMVQFIGRESKYCGLCDSIVTIYREEGIVGFFAGLIPRLLGDIISLWLCNSLAYLINTYALDSGVSTMNEMKSYSQAVTGFFASMLTYPFVLVSNLMAVNNCGLAGGSPPYSPIYTSWIDCWCMLQKAGNMSRGNSLFFRKVPCGKTYCYDLRMLI
Which binding does the source give for B1 here?
The binding was “binds”.

Reference: article PMC12302648
